According to article PMC8913318 (The Journal of Biological Chemistry, 2022):
Entries after “also recorded” stand apart in the source; their conditions may differ.

Target: T1, CYP168A1 (Pseudomonas aeruginosa, UniProt Q9I107)
T1 sequence (Q9I107 1-444): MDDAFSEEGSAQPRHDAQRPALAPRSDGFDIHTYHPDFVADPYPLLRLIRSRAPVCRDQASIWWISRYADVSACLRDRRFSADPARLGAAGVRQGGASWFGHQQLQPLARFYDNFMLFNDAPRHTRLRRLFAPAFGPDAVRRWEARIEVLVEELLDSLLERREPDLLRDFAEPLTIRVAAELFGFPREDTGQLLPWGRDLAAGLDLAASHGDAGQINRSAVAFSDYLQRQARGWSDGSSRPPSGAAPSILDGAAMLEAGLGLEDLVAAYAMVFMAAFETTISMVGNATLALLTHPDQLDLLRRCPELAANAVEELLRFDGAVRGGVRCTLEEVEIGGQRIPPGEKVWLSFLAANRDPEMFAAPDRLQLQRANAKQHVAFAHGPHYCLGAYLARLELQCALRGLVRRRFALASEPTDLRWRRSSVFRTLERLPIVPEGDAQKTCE
Assay: Ligand Kd determination by optical difference spectroscopy
Format: binding
Details: UV-visible titration of CYP168A1

O=C(O)c1cn(C2CC2)c2cc(N3CCNCC3)c(F)cc2c1=O [ciprofloxacin]
Spectral shift of the Soret band (difference spectrum type): no spectral changes; also recorded: did not exert any changes
